Data on two molecules can be found in publication doi:10.1101/2023.02.28.530426.

Sequences of proteins named here, by UniProt entry; tags and fusion partners are left off. A change or cut given only in a name is not applied to a line headed by its entry. Residues count along the entry.
UniProt P40073, 146-367, stated change not applied: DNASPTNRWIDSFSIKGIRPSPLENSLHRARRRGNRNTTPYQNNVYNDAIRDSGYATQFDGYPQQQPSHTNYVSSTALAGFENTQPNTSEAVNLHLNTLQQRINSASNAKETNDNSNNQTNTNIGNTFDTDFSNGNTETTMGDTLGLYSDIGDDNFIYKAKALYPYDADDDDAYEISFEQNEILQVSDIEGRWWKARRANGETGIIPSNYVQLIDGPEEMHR

Results are given in words; binding and its absence hold for the method and conditions named. In cells and extracts the contact can be indirect. Some entries that bind do so weakly or less than the wild type. Tags and fused reporters may be left off the sequences shown.

This assay concerns the target Sho1p cytosolic C-terminal domain, His6 fusion (Sho1p Δ1-145-His6) (S. cerevisiae) (UniProt P40073). Briefly: pull-down.

B1: Bem1p-12XMYC (protein, UniProt P29366 1-551)
chain: MLKNFKLSKRDSNGSKGRITSADISTPSHDNGSVIKHIKTVPVRYLSSSSTPVKSQRDSSPKNRHNSKDITSPEKVIKAKYSYQAQTSKELSFMEGEFFYVSGDEKDWYKASNPSTGKEGVVPKTYFEVFDRTKPSSVNGSNSSSRKVTNDSLNMGSLYAIVLYDFKAEKADELTTYVGENLFICAHHNCEWFIAKPIGRLGGPGLVPVGFVSIIDIATGYATGNDVIEDIKSVNLPTVQEWKSNIARYKASNISLGSVEQQQQQSITKPQNKSAKLVDGELLVKASVESFGLEDEKYWFLVCCELSNGKTRQLKRYYQDFYDLQVQLLDAFPAEAGKLRDAGGQWSKRIMPYIPGPVPYVTNSITKKRKEDLNIYVADLVNLPDYISRSEMVHSLFVVLNNGFDREFERDENQNNIKTLQENDTATFATASQTSNFASTNQDNTLTGEDLKLNKKLSDLSLSGSKQAPAQSTSGLKTTKIKFYYKDDIFALMLKGDTTYKELRSKIAPRIDTDNFKLQTKLFDGSGEEIKTDSQVSNIIQAKLKISVHDI
As to B1, the binding entry is recorded as “binds”.

B2: Pbs2p-HA (protein, UniProt P08018 1-668)
chain: MEDKFANLSLHEKTGKSSIQLNEQTGSDNGSAVKRTSSTSSHYNNINADLHARVKAFQEQRALKRSASVGSNQSEQDKGSSQSPKHIQQIVNKPLPPLPVAGSSKVSQRMSSQVVQASSKSTLKNVLDNQETQNITDVNINIDTTKITATTIGVNTGLPATDITPSVSNTASATHKAQLLNPNRRAPRRPLSTQHPTRPNVAPHKAPAIINTPKQSLSARRGLKLPPGGMSLKMPTKTAQQPQQFAPSPSNKKHIETLSNSKVVEGKRSNPGSLINGVQSTSTSSSTEGPHDTVGTTPRTGNSNNSSNSGSSGGGGLFANFSKYVDIKSGSLNFAGKLSLSSKGIDFSNGSSSRITLDELEFLDELGHGNYGNVSKVLHKPTNVIMATKEVRLELDEAKFRQILMELEVLHKCNSPYIVDFYGAFFIEGAVYMCMEYMDGGSLDKIYDESSEIGGIDEPQLAFIANAVIHGLKELKEQHNIIHRDVKPTNILCSANQGTVKLCDFGVSGNLVASLAKTNIGCQSYMAPERIKSLNPDRATYTVQSDIWSLGLSILEMALGRYPYPPETYDNIFSQLSAIVDGPPPRLPSDKFSSDAQDFVSLCLQKIPERRPTYAALTEHPWLVKYRNQDVHMSEYITERLERRNKILRERGENGLSKNVPALHMGGL
Turning to B2, the binding entry is on record as “binds”.
